Test results from the supplement of paper PMC3334620.
Over roughly 33,000 sequences, “E-score (-0.5 to 0.5)” has its median near -0.015; the highest 2% begin near 0.3. The list shows a part of the results.

What follows are sequences tested against T1, Abf1 (UniProt P14164) (assay: PBM E-score (8-mer binding enrichment) (E-score (-0.5 to 0.5)); higher = stronger / more preferred TF binding). Conditions: protein concentration: 200 nM; construct: GST-full length.
T1 sequence: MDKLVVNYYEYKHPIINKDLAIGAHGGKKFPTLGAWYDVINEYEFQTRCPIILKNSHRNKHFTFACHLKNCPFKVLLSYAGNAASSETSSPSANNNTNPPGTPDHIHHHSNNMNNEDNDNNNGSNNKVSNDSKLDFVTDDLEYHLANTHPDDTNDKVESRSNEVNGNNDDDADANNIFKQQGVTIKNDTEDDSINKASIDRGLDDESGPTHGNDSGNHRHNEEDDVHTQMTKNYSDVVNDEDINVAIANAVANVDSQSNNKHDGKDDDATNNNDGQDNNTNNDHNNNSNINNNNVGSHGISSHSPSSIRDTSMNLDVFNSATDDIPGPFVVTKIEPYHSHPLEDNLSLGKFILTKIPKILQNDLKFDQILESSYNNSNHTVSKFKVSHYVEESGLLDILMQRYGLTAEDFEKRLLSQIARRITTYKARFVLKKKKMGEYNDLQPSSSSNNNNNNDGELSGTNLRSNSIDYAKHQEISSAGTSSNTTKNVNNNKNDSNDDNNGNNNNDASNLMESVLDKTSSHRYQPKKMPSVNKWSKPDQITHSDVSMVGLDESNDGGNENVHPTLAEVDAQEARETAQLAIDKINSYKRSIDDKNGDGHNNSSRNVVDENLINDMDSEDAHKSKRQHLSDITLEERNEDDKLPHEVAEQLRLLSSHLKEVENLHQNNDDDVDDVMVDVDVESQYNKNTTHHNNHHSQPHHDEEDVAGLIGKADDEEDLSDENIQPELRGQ
Description: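 Universal 'all 10-mer' protein binding microarrays (Agilent AMADID 015681) probed with GST-tagged S. cerevisiae TFs (full-length or DBD) made by in vitro transcription/translation (PURExpress), about 100-200 nM. Bound TF was detected with fluorescent anti-GST. Each ungapped 8-mer (which stands for itself and its reverse complement) is scored by the PBM enrichment score (E-score), a modified Wilcoxon-Mann-Whitney statistic from -0.5 to +0.5, computed with the Universal PBM Analysis Suite. Scale: above 0.35 generally sequence-specific binding.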

Sequence | PBM E-score
CGCTTGGA | 0.023
GGTATGCA | -0.094
CGGTATAC | -0.265
ACTCACCT | 0.0445
GTTACCAA | 0.0257
ACAGAGTC | -0.203
GTTGCTCA | 0.0696
GAGTTTCC | -0.141
AGCGCCAA | -0.207
CGGGACAG | -0.0247
AAAGAGCA | 0.0365
AACTCATA | -0.084
AGTTATAT | 0.16
ACGCGCGA | 0.133
CCGAGAGA | -0.116
CGGACAGC | 0.0909
ACTCTAGG | -0.0987
GAACTATA | -0.0979
GTACGAAA | 0.376
AACTGATG | 0.051
CACGGATG | 0.00583
CCATCACA | -0.206
AGGGCCTG | -0.222
GAACATTA | 0.152
ATTGCCTG | 0.0518

Sequence | PBM E-score
CGAGTCTA | -0.138
TCAAATCA | 0.188
CAAGGGGA | 0.0898
AAGCGCCC | -0.245
AAAGGGTA | -0.0845
CTGCCCGA | -0.151
AAAAACCT | -0.0101
AGTATTAG | 0.0106
AGCAACCA | -0.0471
CGGTGACC | 0.0798
AAATCGGC | -0.0768
ACCTGACT | -0.106
AAACGGAT | 0.225
GCACTTAA | 0.0282
GCCGAATA | 0.151
CCGAGGCA | 0.111
CACGCCTC | -0.181
CCGTCTAC | 0.0928
CTTTCAAA | 0.173
ATTGCTCG | -0.0852
CCTAGTAA | -0.122
AATGTACA | 0.147
CATCATCC | 0.259
ACGCAGTC | -0.224
GGCTACGA | 0.0524

Sequence | PBM E-score
AGGACCCA | -0.256
CCATGCGC | -0.129
AATTGGAC | 0.0413
CTCGACCA | -0.171
CAGAATCA | 0.0602
GGTGCACC | 0.0353
AACTATAG | -0.312
GTTCTTAA | 0.124
CTTTCTGC | 0.02
GCAGTCCC | -0.371
GGGGTGAA | -0.138
CTTAATCC | -0.156
CATCGGTA | -0.108
ATTGGTGG | -0.00223
ACGTACAT | 0.244
CCGTGAAG | 0.136
GTCATAGA | 0.0245
CTCCAAAC | 0.0343
CTAGTTCC | 0.00136
TACTCCTA | -0.0957
GTGAACCA | 0.00987
GGTGTGCA | 0.0988
CACGTTTA | 0.103
CTCACCTA | 0.0628
AGTAGGAA | -0.13

Sequence | PBM E-score
CGGGGGAA | -0.334
AGGTCCCA | 0.028
CCAGGTGC | -0.111
AGTAGGTC | 0.0951
ACCTAGAC | 0.00518
CAGGTCCG | -0.101
AGCTTAGG | -0.189
CCGGTCCA | -0.276
TCCGCGAA | 0.179
GACAGTTA | 0.0295
AGATCACG | 0.35
AGAACTGC | 0.024
AGCACAGG | -0.22
CGACTAAA | 0.00382
TCACTAAA | 0.279
ATCACGAA | 0.256
AAATAAAG | 0.134
CTTTATGA | -0.0129
GAGAGTCC | -0.161
ACCTCGAT | -0.0103
AAGACAGG | 0.0183
AGTGTCCA | -0.0379
CGACGCCA | -0.159
AAAAGCGG | -0.179
AATTGTAG | 0.0035

Reprinted at random: 7 entries already listed.
Sequence | PBM E-score
GCCGAATA | 0.151
CGAGTCTA | -0.138
AAATCGGC | -0.0768
ACGCGCGA | 0.133
AACTCATA | -0.084
CCGGTCCA | -0.276
CTTTATGA | -0.0129

Remaining list, next part

Sequence | PBM E-score
CCGCGAAG | -0.0585
ATGCGAAC | 0.0355
GGTCTTTA | 0.0661
CATTTACG | 0.0051
AACCTGCT | -0.0529
CCGCGCTC | -0.0945
AATCGAGA | 0.0395
ATCGTTAG | 0.252
AGAATTAG | -0.163
GTTTGTCA | 0.268
ATGCCTAC | -0.183
ATAATCTC | 0.139
TGAAGCAA | -0.0631
CCTGACTA | 0.156
GCCGTAGA | 0.371
GGTAAGTA | -0.122
ATCCCGAC | 0.0326
ATTGGTAG | -0.0865
AAAAGCAA | -0.1
AGGGGCAG | -0.246
ACAAGACA | -0.13
ACCGATAC | 0.0193
GCTTCTTA | 0.149
GAATCGCA | 0.022
CGTAGCGC | -0.146

Sequence | PBM E-score
AATAGCAA | 0.12
CGTAGTAG | 0.0753
ATACGGAG | 0.0972
ATTTCGAG | 0.142
ATGCGTTA | 0.074
CGTTTAAA | 0.246
CCGATGGA | -0.0469
GAAGACAC | -0.0111
GACCTCGC | -0.0163
AATGCACG | 0.115
CAGTTTAC | -0.054
AGTTTAGC | -0.174
AGCCACAA | -0.102
CAAAATCC | -0.0146
ATAACCAA | 0.167
ATAATCCC | 0.145
AAGTCACG | 0.268
GGAATTCC | -0.0623
AGAGTTAA | 0.0301
CGGTCGGC | -0.154
AACGAGGA | 0.0834
GAACCCGC | -0.337
GCAACCGA | -0.132
GGATGTGA | -0.0763
AATAGTGG | 0.0153

Sequence | PBM E-score
TCTAAGCA | -0.0647
AAAAATCT | 0.0941
CGAAGTTC | 0.0733
AACCCGTG | -0.0442
AACTTGCC | -0.059
CACCAATG | 0.0285
AGAAAAGA | -0.0112
GAACTCGA | 0.084
TCTACGCA | 0.0333
AGAGTCGG | -0.114
CAAACCTC | -0.247
CAGTTTAG | -0.143
CGGGATGA | 0.0791
CTCAAAAC | -0.0687
CGTCCTGA | 0.148
CCCTCGTC | 0.0467
GTCTCAAA | 0.161
GATTCACA | 0.0261
AAAACCTG | -0.0914
ATAAGTGC | 0.0214
GAATCTTA | 0.164
CAAAACCA | -0.0072
